In patent publication US20260023068A1, “USE OF A FBXO42 SPECIFIC INHIBITOR IN TREATING NOTCH SIGNALING-DEPENDENT DISEASE” (WESTLAKE UNIVERSITY, priority 2022, published 2026):
No constants are given. Whether binding was seen depends on the method and setting. For some of these results: Binding seen in cells or lysates may run through a third protein. Some binding calls cover weakened binding; strength is not graded here. For some of these results: Tags and fused reporters may be left off the sequences shown. Each block holds one binder with its values, some of them ahead of it.

Assays:
Settings in all cases: remark: other sources report otherwise
[1] = target: T1, cSFB-tagged RBPJ (recombination signal-binding protein of immunoglobulin kappa J region with C-terminal SFB tag), Q06330; assay: co-IP and kinetic analysis with purified proteins
[2] = target: T1, cSFB-tagged RBPJ (recombination …); assay: TAP-MS with cSFB-RBPJ as the bait in HEK293T cells
[3] = target: RBPJ, endogenous in HEK293T cells, Q06330; assay: co-IP from HEK293T lysates with antibodies against endogenous FBXO42 or RBPJ, western blot
[4] = target: T1, cSFB-tagged RBPJ (recombination …); assay: co-IP of Myc-tagged FBXO42 and cSFB-tagged RBPJ in HEK293T cells (S beads or anti-MYC antibody), western blot

binding [1]: binds
B1: FLAG-FBXO42 protein purified from 293F cells, Q6P3S6 1-717 (protein, UniProt Q6P3S6 1-717, looked up, not shown: small tags and cut ends)
chain: MASSSDSEDDSFMAVDQEETVLEGTMDQDEEPHPVLEAEETRHNRSMSELPEEVLEYILSFLSPYQEHKTAALVCKQWYRLIKGVAHQCYHGFMKAVQEGNIQWESRTYPYPGTPITQRFSHSACYYDANQSMYVFGGCTQSSCNAAFNDLWRLDLNSKEWIRPLASGSYPSPKAGATLVVYKDLLVLFGGWTRPSPYPLHQPERFFDEIHTYSPSKNWWNCIVTTHGPPPMAGHSSCVIDDKMIVFGGSLGSRQMSNDVWVLDLEQWAWSKPNISGPSPHPRGGQSQIVIDDATILILGGCGGPNALFKDAWLLHMHSGPWAWQPLKVENEEHGAPELWCHPACRVGQCVVVFSQAPSGRAPLSPSLNSRPSPISATPPALVPETREYRSQSPVRSMDEAPCVNGRWGTLRPRAQRQTPSGSREGSLSPARGDGSPILNGGSLSPGTAAVGGSSLDSPVQAISPSTPSAPEGYDLKIGLSLAPRRGSLPDQKDLRLGSIDLNWDLKPASSSNPMDGMDNRTVGGSMRHPPEQTNGVHTPPHVASALAGAVSPGALRRSLEAIKAMSSKGPSASAALSPPLGSSPGSPGSQSLSSGETVPIPRPGPAQGDGHSLPPIARRLGHHPPQSLNVGKPLYQSMNCKPMQMYVLDIKDTKEKGRVKWKVFNSSSVVGPPETSLHTVVQGRGELIIFGGLMDKKQNVKYYPKTNALYFVRAKR

binding [2]: binds
binding [3]: binds
B2: FBXO42, endogenous in HEK293T cells, Q6P3S6 1-717 (protein, UniProt Q6P3S6 1-717, looked up)
chain: MASSSDSEDDSFMAVDQEETVLEGTMDQDEEPHPVLEAEETRHNRSMSELPEEVLEYILSFLSPYQEHKTAALVCKQWYRLIKGVAHQCYHGFMKAVQEGNIQWESRTYPYPGTPITQRFSHSACYYDANQSMYVFGGCTQSSCNAAFNDLWRLDLNSKEWIRPLASGSYPSPKAGATLVVYKDLLVLFGGWTRPSPYPLHQPERFFDEIHTYSPSKNWWNCIVTTHGPPPMAGHSSCVIDDKMIVFGGSLGSRQMSNDVWVLDLEQWAWSKPNISGPSPHPRGGQSQIVIDDATILILGGCGGPNALFKDAWLLHMHSGPWAWQPLKVENEEHGAPELWCHPACRVGQCVVVFSQAPSGRAPLSPSLNSRPSPISATPPALVPETREYRSQSPVRSMDEAPCVNGRWGTLRPRAQRQTPSGSREGSLSPARGDGSPILNGGSLSPGTAAVGGSSLDSPVQAISPSTPSAPEGYDLKIGLSLAPRRGSLPDQKDLRLGSIDLNWDLKPASSSNPMDGMDNRTVGGSMRHPPEQTNGVHTPPHVASALAGAVSPGALRRSLEAIKAMSSKGPSASAALSPPLGSSPGSPGSQSLSSGETVPIPRPGPAQGDGHSLPPIARRLGHHPPQSLNVGKPLYQSMNCKPMQMYVLDIKDTKEKGRVKWKVFNSSSVVGPPETSLHTVVQGRGELIIFGGLMDKKQNVKYYPKTNALYFVRAKR

binding [4]: binds
B3: Myc-tagged FBXO42, Q6P3S6 1-717 (protein, UniProt Q6P3S6 1-717, looked up, not shown: small tags and cut ends)
chain: MASSSDSEDDSFMAVDQEETVLEGTMDQDEEPHPVLEAEETRHNRSMSELPEEVLEYILSFLSPYQEHKTAALVCKQWYRLIKGVAHQCYHGFMKAVQEGNIQWESRTYPYPGTPITQRFSHSACYYDANQSMYVFGGCTQSSCNAAFNDLWRLDLNSKEWIRPLASGSYPSPKAGATLVVYKDLLVLFGGWTRPSPYPLHQPERFFDEIHTYSPSKNWWNCIVTTHGPPPMAGHSSCVIDDKMIVFGGSLGSRQMSNDVWVLDLEQWAWSKPNISGPSPHPRGGQSQIVIDDATILILGGCGGPNALFKDAWLLHMHSGPWAWQPLKVENEEHGAPELWCHPACRVGQCVVVFSQAPSGRAPLSPSLNSRPSPISATPPALVPETREYRSQSPVRSMDEAPCVNGRWGTLRPRAQRQTPSGSREGSLSPARGDGSPILNGGSLSPGTAAVGGSSLDSPVQAISPSTPSAPEGYDLKIGLSLAPRRGSLPDQKDLRLGSIDLNWDLKPASSSNPMDGMDNRTVGGSMRHPPEQTNGVHTPPHVASALAGAVSPGALRRSLEAIKAMSSKGPSASAALSPPLGSSPGSPGSQSLSSGETVPIPRPGPAQGDGHSLPPIARRLGHHPPQSLNVGKPLYQSMNCKPMQMYVLDIKDTKEKGRVKWKVFNSSSVVGPPETSLHTVVQGRGELIIFGGLMDKKQNVKYYPKTNALYFVRAKR
